Molecules are shown by their SMILES. The list is a part of this screen's results and no random one: it is rich in T/C values a quarter to a half above the control, in often repeated tests (any T/C) and in doses without a T/C. Further doses and runs are listed elsewhere. T/C: endpoint of the treated group in % of that of the vehicle group. Some doses have a count of surviving animals in place of a T/C: the source holds a T/C of zero for them, seemingly a mark for toxic or unscored doses. Some survivor counts are full or nearly so, which does not show that the dose was tolerated: the source hardly ever lists a survival T/C far under the control, and the zero likely stands for such cases as well. Survivors were counted at the toxicity check, usually on the fifth day, unless a day is given; later deaths do not show. Schedules are NCI's codes, read here as Q, the interval in days (D) or hours (H), X, the number of doses. Some structures stand for samples that the source files as different forms (salt, stereo form or complex); doses refer to the form tested. Where survival is the endpoint, the PubChem record calls one and a half times the control and up active, and a quarter to a half above the control has no call in these data; cut-offs in other NCI protocols can differ. Some doses were run more than once; the results are listed from low to high. Some T/C values carry the count of animals alive at the toxicity check (mostly the fifth day); where none is given, no animal had died by that day.

This assay concerns L1210 leukemia ip in BDF1 mice, survival T/C. The experiment in a line: NCI In Vivo Anticancer Drug Screen. Data for tumor model L1210 Leukemia (intraperitoneal) in B6D2F1 (BDF1) mice. The conditions noted are these: T/C endpoint: mean survival time, higher T/C = longer survival.
The mark [1] stands for this setting: dose: 200.0 mg/kg/injection, schedule: Q01DX001 (ip), vehicle: carboxymethylcellulose (CMC).
[2] abbreviates: dose: 400.0 mg/kg/injection, schedule: Q01DX001 (ip), vehicle: carboxymethylcellulose (CMC).
Where [3] appears, read: dose: 200.0 mg/kg/injection, schedule: Q01DX001 (ip), vehicle: saline.
Setting [4] is: dose: 400.0 mg/kg/injection, schedule: Q01DX001 (ip), vehicle: saline.
Where [5] appears, read: dose: 400.0 mg/kg/injection, schedule: Q01DX009 (ip), vehicle: saline with Tween-80.
[6] abbreviates: dose: 100.0 mg/kg/injection, schedule: Q04DX003 (ip), vehicle: saline.
Where [7] appears, read: dose: 200.0 mg/kg/injection, schedule: Q04DX003 (ip), vehicle: saline.
The mark [8] stands for this setting: dose: 400.0 mg/kg/injection, schedule: Q04DX003 (ip), vehicle: saline.
The mark [9] stands for this setting: dose: 50.0 mg/kg/injection, schedule: Q01DX009 (ip), vehicle: Klucel (hydroxypropylcellulose) (HPC).
[10] abbreviates: dose: 400.0 mg/kg/injection, schedule: Q04DX002 (ip), vehicle: Klucel (hydroxypropylcellulose) (HPC).

Consider `O=NN(CCCl)C(=O)Nc1ccc(Br)cc1`, for which the T/C runs as follows: (dose: 3.0 mg/kg/injection, schedule: Q01DX015 (ip), vehicle: carboxymethylcellulose (CMC)) 127 % of control; (dose: 3.75 mg/kg/injection, schedule: Q01DX009 (ip), vehicle: carboxymethylcellulose (CMC)) 130 % of control; (dose: 5.0 mg/kg/injection, schedule: Q01DX009 (ip), vehicle: carboxymethylcellulose (CMC)) 127 % of control; (dose: 5.0 mg/kg/injection, schedule: Q01DX015 (ip), vehicle: carboxymethylcellulose (CMC)) 136 % of control [5 of 6 alive]; (dose: 8.0 mg/kg/injection, schedule: Q01DX009 (ip), vehicle: carboxymethylcellulose (CMC)) 127 % of control; (dose: 8.0 mg/kg/injection, schedule: Q01DX015 (ip), vehicle: carboxymethylcellulose (CMC)) 134 % of control [5 of 6 alive]. The T/C by setting is: (dose: 12.0 mg/kg/injection, schedule: Q01DX015 (ip), vehicle: carboxymethylcellulose (CMC)) 125 and 136 % of control; (dose: 19.0 mg/kg/injection, schedule: Q01DX015 (ip), vehicle: carboxymethylcellulose (CMC)) 133 and 146 % of control; (dose: 29.0 mg/kg/injection, schedule: Q01DX015 (ip), vehicle: carboxymethylcellulose (CMC)) 128 and 148 % of control; (dose: 44.4 mg/kg/injection, schedule: Q01DX001 (ip), vehicle: carboxymethylcellulose (CMC)) 149 % of control; (dose: 66.6 mg/kg/injection, schedule: Q01DX001 (ip), vehicle: carboxymethylcellulose (CMC)) 146 % of control; (dose: 100.0 mg/kg/injection, schedule: Q01DX001 (ip), vehicle: carboxymethylcellulose (CMC)) 133 % of control. Moreover, the T/C was 146 % of control (dose: 150.0 mg/kg/injection, schedule: Q01DX001 (ip), vehicle: carboxymethylcellulose (CMC)) and 127 % of control under setting [1]. For the same compound, the survivor count was 6 of 6 (dose: 66.0 mg/kg/injection, schedule: Q01DX015 (ip), vehicle: carboxymethylcellulose (CMC)); 4 of 6 (dose: 100.0 mg/kg/injection, schedule: Q01DX015 (ip), vehicle: carboxymethylcellulose (CMC)); 0 of 4 under setting [2].

As to `CCN(CC)C(=O)C1C2C=CC(C2)C1C(=O)N(CC)CC` (stereo not given), the survivor count (dose: 400.0 mg/kg/injection, schedule: Q04DX003 (ip), vehicle: saline with Tween-80) is 0 of 3.

As for `COc1cccc(CN(C)C)c1C(C)(C)O`, the survivor count was 3 of 6 under setting [3] and 0 of 6 under setting [4].

Take `CCOP(N)(=S)OCC`: the survivor count (dose: 300.0 mg/kg/injection, schedule: Q01DX001 (ip), vehicle: saline) is on record as 2 of 6.

Consider `C=C1C(=O)OC2C1CCC(C)=C1C(=O)C=C(C)C12` (stereo not given), for which the survivor count (dose: 400.0 mg/kg/injection, schedule: Q04DX002 (ip), vehicle: saline) was 3 of 3.

Consider `CC(=O)N(C)c1ccc(S(=O)(=O)Cl)cc1`, for which, under setting [5], the survivor count is reported as 4 of 6.

For `CCC(=O)OC(CC=C(C)C)(c1ccccc1)C(C)CN(C)C` (stereo not given), the survivor count (dose: 200.0 mg/kg/injection, schedule: Q01DX009 (ip), vehicle: saline) is listed as 0 of 6 and the survivor count (dose: 400.0 mg/kg/injection, schedule: Q01DX009 (ip), vehicle: saline) is on record as 0 of 6.

For `CCc1cc(O)c(Cl)c(C)c1Cl`, the survivor count (dose: 200.0 mg/kg/injection, schedule: Q01DX009 (ip), vehicle: gum acacia) is 5 of 6.

In the case of `CN(C)N=Nc1cn(C)c(=O)[nH]c1=O`, the T/C (dose: 100.0 mg/kg/injection, schedule: Q04DX003 (ip), vehicle: water) was 125 and 133 % of control; the T/C (dose: 200.0 mg/kg/injection, schedule: Q04DX003 (ip), vehicle: water) is 126 [5 of 6 alive] and 143 % of control. Besides, the survivor count (dose: 300.0 mg/kg/injection, schedule: Q04DX003 (ip), vehicle: water) is 1 of 6.

Regarding `CNC(CNC(CO)CC(C)C)Cc1ccc(OCc2ccccc2)cc1` (stereo not given), the survivor count runs as follows: (dose: 100.0 mg/kg/injection, schedule: Q01DX009 (ip), vehicle: saline) 4 of 6; under setting [6], 1 of 6; under setting [7], 1 of 6; under setting [8], 0 of 6.

As for `CCC1(O)CC2CN(CCc3c([nH]c4ccccc34)C(C(=O)OC)(c3cc4c(cc3OC)N(C)C3C(O)(C(=O)NCCSSCCNC(=O)C5(O)C(O)C6(CC)C=CCN7CCC8(c9cc(C%10(C(=O)OC)CC%11CN(CCc%12c%10[nH]c%10ccccc%12%10)CC(O)(CC)C%11)c(OC)cc9N(C)C58)C76)C(O)C5(CC)C=CCN6CCC43C65)C2)C1` (stereo not given), the T/C is, setting by setting: (dose: 389.0 micrograms/kg/injection, schedule: Q04DX003 (ip), vehicle: saline) 129 % of control; (dose: 648.0 micrograms/kg/injection, schedule: Q04DX003 (ip), vehicle: saline) 133 % of control; (dose: 1080.0 micrograms/kg/injection, schedule: Q04DX003 (ip), vehicle: saline) 135 % of control. Besides, the survivor count (dose: 5000.0 micrograms/kg/injection, schedule: Q04DX003 (ip), vehicle: saline) is 5 of 8.

Take `C[n+]1c(/C=C/c2ccc3cccc(O)c3n2)ccc2cccc(O)c21`: the survivor count is, setting by setting: (dose: 50.0 mg/kg/injection, schedule: Q01DX009 (ip), vehicle: saline with Tween-80) 2 of 6; (dose: 75.0 mg/kg/injection, schedule: Q04DX003 (ip), vehicle: saline with Tween-80) 5 of 6; (dose: 115.0 mg/kg/injection, schedule: Q04DX003 (ip), vehicle: saline with Tween-80) 3 of 6; (dose: 170.0 mg/kg/injection, schedule: Q04DX003 (ip), vehicle: saline with Tween-80) 5 of 6.

Regarding `CCCCNC(C)(C)C(S)c1ccc(Cl)cc1` (stereo not given), the survivor count is reported as 2 of 6 under setting [9], 1 of 6 under setting [6], 1 of 6 under setting [7] and 0 of 6 under setting [8].

Regarding `NCC1C2CC3CC(C2)CC1C3` (stereo not given), the survivor count reads like this: (dose: 100.0 mg/kg/injection, schedule: Q01DX001 (ip), vehicle: saline) 3 of 6; under setting [3], 0 of 6; under setting [4], 0 of 6; under setting [10], 1 of 3.

As for `CC(c1c[nH]c2ccccc12)N1CCCCC1` (stereo not given), the survivor count (dose: 100.0 mg/kg/injection, schedule: Q04DX003 (ip), vehicle: acetone) was 1 of 6; the survivor count under setting [1] is recorded as 0 of 4; the survivor count under setting [2] was 0 of 4.

Take `COC(=O)c1cc([N+](=O)[O-])cc([N+](=O)[O-])c1Br`: the survivor count under setting [9] was 4 of 6; the survivor count (dose: 100.0 mg/kg/injection, schedule: Q04DX003 (ip), vehicle: Klucel (hydroxypropylcellulose) (HPC)) is on record as 0 of 6; the survivor count (dose: 200.0 mg/kg/injection, schedule: Q04DX003 (ip), vehicle: Klucel (hydroxypropylcellulose) (HPC)) was 0 of 6; the survivor count (dose: 400.0 mg/kg/injection, schedule: Q04DX003 (ip), vehicle: Klucel (hydroxypropylcellulose) (HPC)) was 0 of 6.

As to `O=C(NCCCc1ccc(S(=O)(=O)F)cc1)Oc1ccc([N+](=O)[O-])cc1`, the survivor count is 3 of 6 (dose: 200.0 mg/kg/injection, schedule: Q01DX009 (ip), vehicle: saline with Tween-80) and 2 of 6 under setting [5].

For the compound `CC1(C)CC(=O)C2C(C1)Nc1ccccc1NC2c1cccc([N+](=O)[O-])c1` (stereo not given), the survivor count under setting [10] is listed as 2 of 3.

Take `CC12CCCC(C(C#N)C(N)=O)(C1)NC(=O)C2C#N` (stereo not given): under setting [4], the survivor count was 1 of 4.

Values taken from PubChem BioAssay AID248 (DTP/NCI, 2004).
